Measurements published in patent US10647692B2, “Heterocycle-substituted bicyclic azole pesticides” (FMC Corporation, priority 2015, dated 2020).
Some entries share one result that the patent states for a list of compounds.

Columns and labels:
Format in all cases: in vivo
[1] = system: green peach aphid (Myzus persicae (Sulzer)); assay: Test A: control of green peach aphid, foliar spray on pre-infested radish plant; conditions: assessed after 6 days
Procedure: (§1) Test compounds were formulated using a solution containing 10% acetone, 90% water and 300 ppm X-77® Spreader Lo-Foam Formula non-ionic surfactant containing alkylarylpolyoxyethylene, free fatty acids, glycols and isopropanol (Loveland Industries, Inc. Greeley, Colo., USA). The formulated compounds were applied in 1 mL of liquid through a SUJ2 atomizer nozzle with ⅛ JJ custom body (Spraying Systems Co. Wheaton, Ill., USA) positioned 1.27 cm (0.5 inches) above the top of each test unit. Test compounds were sprayed at the rates indicated, and each test was replicated three times.
For evaluating control of green peach aphid (Myzus persicae (Sulzer)) through contact and/or systemic means, the test unit consisted of a small open container with a 12-15-day-old radish plant inside. This was pre-infested by placing on a leaf of the test plant 30-40 aphids on a piece of leaf excised from a culture plant (cut-leaf method). The aphids moved onto the test plant as the leaf piece desiccated. After pre-infestation, the soil of the test unit was covered with a layer of sand.
Test compounds were formulated and sprayed at 250 and/or 50 ppm. After spraying of the formulated test compound, each test unit was allowed to dry for 1 hour and then a black, screened cap was placed on top. The test units were held for 6 days in a growth chamber at 19-21° C. and 50-70% relative humidity. Each test unit was then visually assessed for insect mortality.

[2] = system: sweetpotato whitefly (Bemisia tabaci (Gennadius)); assay: Test E: control of sweetpotato whitefly, sprayed cotton plant infested with eggs; conditions: assessed after 13 days
Procedure: as §1
For evaluating control of the sweetpotato whitefly (Bemisia tabaci (Gennadius)) through contact and/or systemic means, the test unit consisted of a small open container with a 12-14-day-old cotton plant inside. Prior to the spray application, both cotyledons were removed from the plant, leaving one true leaf for the assay. Adult whiteflies were allowed to lay eggs on the plant and then were removed from the test unit. Cotton plants infested with at least 15 eggs were submitted to the test for spraying.
Test compounds were formulated and sprayed at 250 and/or 50 ppm. After spraying, the test units were allowed to dry for 1 hour. The cylinders were then removed, and the units were taken to a growth chamber and held for 13 days at 28° C. and 50-70% relative humidity. Each test unit was then visually assessed for insect mortality.

[3] = system: cotton melon aphid (Aphis gossypii (Glover)); assay: Test B: control of cotton melon aphid, foliar spray on pre-infested cotton plant; conditions: assessed after 6 days
Procedure: as §1
For evaluating control of cotton melon aphid (Aphis gossypii (Glover)) through contact and/or systemic means, the test unit consisted of a small open container with a 6-7-day-old cotton plant inside. This was pre-infested with 30-40 insects on a piece of leaf according to the cut-leaf method, and the soil of the test unit was covered with a layer of sand.
Test compounds were formulated and sprayed at 250 and/or 50 ppm. After spraying, the test units were maintained in a growth chamber for 6 days at 19° C. and 70% relative humidity. Each test unit was then visually assessed for insect mortality.

Row | Structure (SMILES) | mortality ([1]; sprayed at 50 ppm) | mortality ([1]; sprayed at 250 ppm) | mortality ([2]; sprayed at 250 ppm) | mortality ([3]; sprayed at 250 ppm) | mortality ([3]; sprayed at 50 ppm) | mortality ([2]; sprayed at 50 ppm)
1 | CC(C)NC(=O)C(=O)c1ccc2nn(-c3cccnc3)cc2c1 [Compound 47] | at least 80% | at least 80% | at least 50% |  |  | 
2 | CC(C)NC(=O)Cc1ccc2nn(-c3cncc(F)c3)cc2c1 [Compound 56] | at least 80% | at least 80% | at least 50% |  |  | 
3 | C[S+]([O-])CCC(=O)c1cccc2nn(-c3cccnc3)cc12 (stereo not drawn) [Compound 3] | at least 80% |  |  |  |  | 
4 | COC(CNC(=O)Cc1ccc2nn(-c3cccnc3)cc2c1F)OC [Compound 88] |  | at least 80% |  |  |  | 
5 | C[S+]([O-])CCC(=O)c1ccc2nn(-c3cccnc3)cc2c1 (stereo not drawn) [Compound 33] | at least 80% |  |  |  |  | 
6 | c1cncc(-n2cc3cc(OCC4CC4)ccc3n2)c1 [Compound 53] |  | at least 80% | at least 50% | at least 80% |  | 
7 | c1cncc(-n2cc3cc(OCC4CCO4)ccc3n2)c1 (stereo not drawn) [Compound 65] | at least 80% | at least 80% |  | at least 80% | at least 80% | 
8 | CCCOc1ccc2nn(-c3cccnc3)cc2c1 [Compound 55] | at least 80% | at least 80% | at least 50% | at least 80% |  | 
9 | O=C(NCC(F)(F)F)C(O)c1ccc2nn(-c3cccnc3)cc2c1 (stereo not drawn) [Compound 49] | at least 80% | at least 80% |  |  |  | 
10 | CC(=O)c1ccc2nn(-c3cccnc3)cc2c1 [Compound 30] |  |  | at least 50% |  |  | at least 50%
11 | CON(C)CCC(=O)c1cccc2nn(-c3cccnc3)cc12 [Compound 1] |  | at least 80% |  |  |  | 
12 | CCNC(=O)C(C)(C)NC(=O)Cc1ccc2nn(-c3cccnc3)cc2c1 [Compound 63] |  | at least 80% |  |  |  | 
13 | CCOc1ccc2nn(-c3cccnc3)cc2c1 [Compound 52] |  |  | at least 50% | at least 80% | at least 80% | 
14 | CC(C)NC(=O)Cc1ccc2nn(-c3cccnc3)cc2c1F [Compound 86] | at least 80% | at least 80% |  | at least 80% | at least 80% | 
15 | CNC(=O)C(C)(C)NC(=O)Cc1ccc2nn(-c3cccnc3)cc2c1 [Compound 57] | at least 80% | at least 80% |  |  |  | 
16 | C=CCCOc1ccc2nn(-c3cccnc3)cc2c1 [Compound 68] | at least 80% | at least 80% | at least 50% | at least 80% | at least 80% | 
17 | CSCCC(=O)c1ccc2nn(-c3cccnc3)cc2c1 [Compound 31] | at least 80% |  |  |  |  | 

Row | Structure (SMILES) | mortality ([1]; sprayed at 50 ppm) | mortality ([1]; sprayed at 250 ppm) | mortality ([2]; sprayed at 250 ppm) | mortality ([3]; sprayed at 250 ppm) | mortality ([3]; sprayed at 50 ppm) | mortality ([2]; sprayed at 50 ppm)
18 | CC(C)NC(=O)C(O)c1ccc2nn(-c3cccnc3)cc2c1 (stereo not drawn) [Compound 50] | at least 80% | at least 80% |  |  |  | 
19 | COC(CNC(=O)Cc1ccc2nn(-c3cccnc3)cc2c1)OC [Compound 61] | at least 80% | at least 80% | at least 50% |  |  | 
20 | CS(=O)(=O)CCC(=O)c1cccc2nn(-c3cccnc3)cc12 [Compound 4] | at least 80% |  |  |  |  | 
21 | FC(F)(F)c1cc(Oc2ccc3nn(-c4cccnc4)cc3c2)ccn1 [Compound 45] | at least 80% | at least 80% |  |  |  | 
22 | O=C(Cc1ccc2nn(-c3cccnc3)cc2c1)NCC(F)(F)F [Compound 41] | at least 80% | at least 80% |  |  |  | 
23 | CC(C)NC(=O)C(C)c1ccc2nn(-c3cccnc3)cc2c1 (stereo not drawn) [Compound 51] | at least 80% | at least 80% | at least 50% | at least 80% | at least 80% | at least 50%
24 | CS(=O)(=O)CCC(=O)c1ccc2nn(-c3cccnc3)cc2c1 [Compound 34] | at least 80% |  |  |  |  | 
25 | c1cncc(-n2cc3cc(Oc4cnccn4)ccc3n2)c1 [Compound 44] | at least 80% | at least 80% | at least 50% |  |  | 
26 | O=C(Cc1ccc2nn(-c3cccnc3)cc2c1)NCc1ncccn1 [Compound 39] | at least 80% | at least 80% | at least 50% |  |  | 
27 | FC(F)(F)CCOc1ccc2nn(-c3cccnc3)cc2c1 [Compound 64] |  | at least 80% | at least 50% | at least 80% | at least 80% | 
28 | c1cncc(-n2cc3cc(OCC4CO4)ccc3n2)c1 (stereo not drawn) [Compound 66] | at least 80% | at least 80% |  | at least 80% | at least 80% | 
29 | O=C(Cc1ccc2nn(-c3cncc(F)c3)cc2c1)NCC1CCCO1 (stereo not drawn) [Compound 60] |  |  | at least 50% |  |  | 
30 | CC(C)(C#N)NC(=O)Cc1ccc2nn(-c3cccnc3)cc2c1F [Compound 87] | at least 80% | at least 80% |  | at least 80% | at least 80% | 
31 | O=C(CCSCC(F)(F)F)c1ccc2nn(-c3cccnc3)cc2c1 [Compound 37] | at least 80% |  |  |  |  | 
32 | CC(C)(C#N)NC(=O)Cc1ccc2nn(-c3cccnc3)cc2c1 [Compound 40] | at least 80% | at least 80% | at least 50% |  |  | 
33 | O=C(Cc1ccc2nn(-c3cccnc3)cc2c1)NCC1CCCO1 (stereo not drawn) [Compound 58] | at least 80% | at least 80% | at least 50% |  |  | 
